Experimental data: PubChem BioAssay AID743121 (NCATS, 2013)

Assay: 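Genes whose silencing strengthens cell killing by camptothecin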 (primary screen)
System: MDA-MB-231 cells, a human breast cancer line
Knock-down reagent: single siRNA against human genes, 20 nM siRNA (0.8 pmol per well)
Duration: 120 h (drug added 48 h after transfection, read 72 h later)
Challenge: camptothecin 20 nM (about EC30) for 72 h; vehicle 0.1% DMSO in parallel plates
Detection: 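CellTiter-Glo ATP signal, scaled to control siRNA as percent viability; sensitisation given as log2 of untreated divided by camptothecin-treated viability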
Scale: log2 vehicle/camptothecin viability: higher = stronger sensitisation to camptothecin; viability with camptothecin and viability without drug: higher = more viable cells
Rule for the call: 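Active genes have an RSA gene-level p-value below 0.001, computed from the ratios of their separate siRNAs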
In all, the deposit lists about 26,000 reagents; this is a random part of them. 167 of all reagents (0.63%) count as active. 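Calls are per gene from RSA p-values that are not deposited; an individual active-marked siRNA can sensitise only weakly.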 Entries without a mark were called inactive. The numbers tell different reagents against one gene apart. Reagent sequences are not shown.

log2 vehicle/camptothecin viability	viability with camptothecin (% of control)	viability without drug (% of control)	target	siRNA no.
-0.231	103	87.8	P2RY2 (GeneID 5029)	1
-0.359	75.1	58.5	P2RY2 (GeneID 5029)	2
0.579	14	20.9	P2RY2 (GeneID 5029)	3
-0.177	35.5	31.4	P2RY2 (GeneID 5029)	4
-0.327	69.3	55.2	CCL19 (GeneID 6363)	1
-0.232	89	75.8	CCL19 (GeneID 6363)	2
-0.146	61.4	55.5	CCL19 (GeneID 6363)	3
-0.0809	50.6	47.8	CCL19 (GeneID 6363)	4
0.205	47.7	54.9	APOBR (GeneID 55911)	1
-0.0667	72.4	69.1	APOBR (GeneID 55911)	2
-0.325	76.3	60.9	APOBR (GeneID 55911)	3
-0.307	96	77.6	APOBR (GeneID 55911)	4
-0.172	56.2	49.9	SPRYD3 (GeneID 84926)	1
-0.0955	59.1	55.3	SPRYD3 (GeneID 84926)	2
0.265	71.4	85.7	SPRYD3 (GeneID 84926)	3
0.309	89.1	110	SPRYD3 (GeneID 84926)	4
-0.288	49.9	40.9	DCTN1 (GeneID 1639)	1
-0.0926	91.5	85.9	DCTN1 (GeneID 1639)	2
0.836	44.4	79.3	DCTN1 (GeneID 1639)	3
0.309	22.5	27.9	DCTN1 (GeneID 1639)	4
0.0875	96.2	102	EDNRA (GeneID 1909)	1
0.0158	83.3	84.2	EDNRA (GeneID 1909)	2
0.401	59	77.9	EDNRA (GeneID 1909)	3
0.601	40.5	61.5	EDNRA (GeneID 1909)	4
0.132	61.7	67.6	OR6W1P (GeneID 89883)	1
-0.265	67.6	56.3	OR6W1P (GeneID 89883)	2
-0.338	67.2	53.2	OR6W1P (GeneID 89883)	3
-0.234	74.7	63.5	OR6W1P (GeneID 89883)	4
0.341	44.1	55.8	PPP5C (GeneID 5536)	1
-0.205	64.1	55.6	PPP5C (GeneID 5536)	2
-0.496	101	71.3	PPP5C (GeneID 5536)	3
-0.104	66.7	62.1	PPP5C (GeneID 5536)	4
-0.447	75.7	55.6	TIMM50 (GeneID 92609)	1
-0.459	55.9	40.7	TIMM50 (GeneID 92609)	2
-0.29	60.4	49.4	TIMM50 (GeneID 92609)	3
-0.0828	80.1	75.6	TIMM50 (GeneID 92609)	4
-0.408	104	78.4	TRIM37 (GeneID 4591)	1
-0.0459	95.2	92.3	TRIM37 (GeneID 4591)	2
-0.101	23.9	22.2	TRIM37 (GeneID 4591)	3
-0.339	69.1	54.6	TRIM37 (GeneID 4591)	4
-0.0229	69.1	68	GNAS (GeneID 2778)	1
0.0705	91.1	95.7	GNAS (GeneID 2778)	2
0.492	50.5	71.1	GNAS (GeneID 2778)	3
-0.29	115	94	GNAS (GeneID 2778)	4
-0.514	78.6	55	NCOA3 (GeneID 8202)	1
0.639	32.6	50.8	NCOA3 (GeneID 8202)	2
0.525	34.7	49.9	NCOA3 (GeneID 8202)	3

An excerpt from above, showing only “viability with camptothecin (% of control)”:
P2RY2 (GeneID 5029) #3	14
P2RY2 (GeneID 5029) #4	35.5
CCL19 (GeneID 6363) #1	69.3
CCL19 (GeneID 6363) #2	89
CCL19 (GeneID 6363) #3	61.4
CCL19 (GeneID 6363) #4	50.6
APOBR (GeneID 55911) #1	47.7
